Patent US20220184184A1 (Novo Nordisk A/S, priority 2019, published 2022)

Assay: general procedure: Fmoc solid-phase peptide synthesis; 2-Chlorotrityl resin 100-200 mesh […] (also […]); TCTU / N,N-diisopropylethylamine
Conditions: late stage modification step, TFA salt

## Boc-Lys(Boc)-OEG3-benzaldehyde
  step yield: 99%
